Part of at least one peptide drawing is inferred or uncertain, most often the ends. Some compounds share one wording; it may come from a single statement. Square brackets hold non-standard residues; d marks the D form. Ends that are not written are not given here. Peptide text beside a SMILES is read from it. * marks the point of attachment. hArg = N=C(N)NCCCC[C@H](N)C(=O)O; αMeL = CC(C)C[C@](C)(N)C(=O)O; Acryloyl = C=CC(=O)*; Aib = CC(C)(N)C(=O)O
What was measured:
[1] = biological target: T1, cultured rat pituitary cells (Rattus norvegicus, UniProt P35353); assay: Stimulation of ACTH and β-endorphin secretion by cultured rat pituitary cells (general procedure of Example III); type: cell-based
T1 sequence (P35353 24-415): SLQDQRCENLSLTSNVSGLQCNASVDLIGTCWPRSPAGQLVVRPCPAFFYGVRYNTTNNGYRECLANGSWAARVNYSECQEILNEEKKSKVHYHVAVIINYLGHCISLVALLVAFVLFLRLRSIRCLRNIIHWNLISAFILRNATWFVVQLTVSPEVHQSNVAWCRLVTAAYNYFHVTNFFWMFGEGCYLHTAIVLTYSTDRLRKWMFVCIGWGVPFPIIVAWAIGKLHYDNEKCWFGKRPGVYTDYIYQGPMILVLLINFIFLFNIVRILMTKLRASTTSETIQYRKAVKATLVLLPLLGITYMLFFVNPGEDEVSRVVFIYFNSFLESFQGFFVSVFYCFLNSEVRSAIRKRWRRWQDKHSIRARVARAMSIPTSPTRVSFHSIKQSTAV
Method: The synthetic peptide AHC and oCRF were examined for their effects on the secretion of ACTH and B-endorphin in vitro and was also in vivo. The potency of synthetic oCRF to stimulate the secretion of ACTH and β-endorphin by cultured rat pituitary cells was measured using the procedure as generally set forth in Endocrinology, 91, 562 (1972). […] In.vivo testing is carried out using the general procedure set forth in C. Rivier et al., Science, 218, 377 (1982).

[2] = Lowering of blood pressure, in vivo testing by the general procedure of Example III

Compound | secretion of ACTH and β-END-LI [1] | lowering of blood pressure [2]
Acryloyl-LGVSEPPISLDLTFHLLREVLEMARAEQLAQQAHSNRKLMEEI-NH2 | stimulates | very significant lowering of blood pressure
SQEPPISLD[αMeL]TFH[αMeL]LREM[αMeL]EMAKAEQ[αMeL]AEQAA[αMeL]NR[hArg]L[αMeL]EEA-NH2 [[CML^10,14,19,27,33,38, Har^36]AHC] | stimulates | very significant lowering of blood pressure
SQEPPISLD[αMeL]TFHL[αMeL]REMLEM[Aib]KAEQ[αMeL]AEQA[Aib]LNRL[αMeL]LEE[Aib]-NH2 [[CML^10,15,27,37,CMA^22,32,41]-AHC] | stimulates | very significant lowering of blood pressure
CC[C@H](C)[C@H](NC(=O)[C@H](CC(=O)O)NC(=O)[C@H](CC(C)C)NC(=O)[C@H](CC(C)C)NC(=O)[C@H](CCCCN)NC(=O)[C@H](CCCNC(=N)N)NC(=O)[C@H](CC(N)=O)NC(=O)[C@](C)(CC(C)C)NC(=O)[C@H](Cc1c[nH]cn1)NC(=O)[C@H](C)NC(=O)[C@H](CCC(N)=O)NC(=O)[C@H](CCC(N)=O)NC(=O)[C@H](C)NC(=O)[C@H](CC(C)C)NC(=O)[C@H](CCC(N)=O)NC(=O)[C@H](CC(=O)O)NC(=O)[C@H](C)NC(=O)[C@H](CCCCN)NC(=O)[C@@H](NC(=O)[C@H](CCSC)NC(=O)[C@H](CCC(=O)O)NC(=O)[C@H](CC(C)C)NC(=O)[C@@H](NC(=O)[C@H](CCC(=O)O)NC(=O)[C@H](CCCNC(=N)N)NC(=O)[C@H](CC(C)C)NC(=O)[C@H](CC(C)C)NC(=O)[C@H](Cc1c[nH]cn1)NC(=O)[C@H](Cc1ccccc1)NC(=O)[C@@H](NC(=O)[C@H](CC(C)C)NC(=O)[C@H](CC(=O)O)NC(=O)[C@H](CC(C)C)NC(=O)[C@H](CO)NC(=O)[C@@H](NC(=O)[C@@H]1CCCN1C(=O)[C@@H]1CCCN1C(=O)[C@H](N)Cc1ccc(O)cc1)[C@@H](C)CC)[C@@H](C)O)C(C)C)[C@@H](C)O)C(=O)N[C@@H](C)C(N)=O [[D-Tyr^3,CML^33]-oCRF(3-41)] (H-[dY]PPISLDLTFHLLREVLEMTKADQLAQQAH[αMeL]NRKLLDIA-NH2) | stimulates | very significant lowering of blood pressure
